# Results reported in publication PMC12040169 (PLOS Biology, 2025).
# Some of the results follow.
# System: T1, CTL2-GFP (C. trachomatis L2/434/Bu, GFP-expressing)
# T1 construct: L2/434/Bu, GFP-expressing
# Set-up: species or system HeLa; Intracellular C. trachomatis growth in HeLa cells, bulk GFP fluorescence relative to DMSO
# Conditions: bulk GFP, single well; 28.5 h, 10 µM; inhibitor
row,SMILES,% of control remaining [%]
1,COc1ccc(S(=O)(=O)N(CC(=O)Nc2ccc(F)cc2)c2ccccc2)cc1 [CBK264141],131.164
2,COc1ccccc1OCCO [CBK000949],107.053
3,O=C(CN1CCN(c2ccc(C(F)(F)F)cn2)CC1)c1ccc2c(c1)OCCO2 [CBK074700],66.4517
4,O=C(COc1ccc2ccccc2c1Br)Nc1ccc(S(=O)(=O)N2CCCC2)cc1 [CBK264135],100
5,Cc1ncc(CO)c(/C=N/N=C/c2ccc(O)c(O)c2)c1O [CBK265075],96.8965
6,COc1cc(Cn2c(-c3ccc(O)c(OC)c3)nc3ccccc32)ccc1O [CBK291138],137.117
7,COc1ccc(CN2CCCn3c4c(c5cc(C)ccc53)CCCC42)cc1OCc1ccccc1 (stereo not drawn) [CBK262879],102.591
8,Cn1ccnc1CN1CCN(Cc2nccn2C)CC1 [CBK266206C],111.349
9,O=C(O)Cc1csc(NC(=O)c2ccc(N3CCCCC3)c([N+](=O)[O-])c2)n1 [CBK296081],139.897
10,COc1ccc(-c2cnc(N)c(NCC(C)(C)CO)n2)c(OC)c1OC [CBK063542],144.999
11,c1cncc(COc2nccnc2N2CCN(CCN3CCOCC3)CC2)c1 [CBK083141],117.415
12,CCOc1ncccc1C(=O)NCc1ccc(NC(N)=O)cc1 [CBK279382],83.7686
13,O=C(O)c1ccc(COc2ccc(/C=C3\SC(=S)N(Cc4cccnc4)C3=O)cc2)cc1 [CBK264637],100
14,CN1C2CCC1CC(OC(=O)CN1CCCCC1)C2 (stereo not drawn) [CBK278166C],104.315
15,Cc1nccn1CC1(O)CCN(Cc2cn(C)c3ccccc23)CC1 [CBK285017],140.982
16,COc1ccc(CC(=O)Nc2ccc(S(N)(=O)=O)cc2)cc1OC [CBK263429],123.689
17,Cc1cc(/C=C/C2=CCN(C)CC2)c(C)n1C1CC1 [CBK283858],110.137
18,COc1ccc(-c2nc(NC(=O)c3ccncc3)cnc2-c2ccc(F)c(Cl)c2)cc1 [CBK036663],103.563
19,Nc1ncc([C@H]2C[C@@H](O)[C@@H](CO)O2)c(=O)[nH]1 [CBK201246],144.953
20,COc1ccc(C(CCN)c2ccccc2OC)cc1 (stereo not drawn) [CBK266125],92.1584
21,CCCNCCc1ccc(NC(=O)NCCc2ccccc2)cc1 [CBK173873T],172.521

row,SMILES,% of control remaining [%]
1,CCCN(CCC)C(=O)c1ccc(-n2nc(C(=O)OCC)c(Br)c2C)cc1 [CBK114363],102.355
2,CCCCOc1ccc(NC(=O)NC(=O)C2CCN(CCc3ccc(Br)cc3)CC2)cc1 [CBK035096],100
3,COc1cccc(NC(=O)N[C@H]2C[C@@H](c3nc(-c4ccccn4)no3)N(C)C2)c1 [CBK288853],98.7362
4,c1ccc(Oc2cccc(CN3CCOCC3)c2)cc1 [CBK261870],112.477
5,CN1C(=O)COc2ccccc2C/C=C/C[C@@H]2[C@H]1CCCN2C(=O)Cn1ccc(=O)[nH]c1=O [CBK292093],129.693
6,CCCc1cc(O)n(-c2nc3ccccc3[nH]2)n1 [CBK270269],120.449
7,CCc1ccc(OCC(=O)NC(=S)Nc2cccc3nsnc23)cc1 [CBK267173],133.617
8,Cn1c(NC(=O)CSc2nnc(Cc3cccc4ccccc34)o2)cc(=O)n(C)c1=O [CBK266055],105.752
9,O=C(CSc1ccc(Cl)cc1)Nc1cc(Cl)ccc1C(=O)O [CBK264217],118.322
10,O=C(O)CCC(=O)N1N=C(c2c(-c3ccccc3)c3cc(Cl)ccc3[nH]c2=O)CC1c1ccccn1 (stereo not drawn) [CBK296106],129.011
11,CSc1nc(N)nc(SC(C(=O)O)c2ccccc2)c1C#N (stereo not drawn) [CBK267461],127.419
12,O=C1CC(c2ccc(Cl)cc2)CC(=O)C1=CNCCN1CCN(C(=O)Nc2ccccc2)CC1 (stereo not drawn) [CBK263671],109.384
13,O=C(N/N=C\c1cccc(OC(=O)c2cccs2)c1)c1ccc([N+](=O)[O-])cc1 [CBK262289],100
14,Cn1ccnc1C1(O)CCN(C(=O)NC2CCCCC2)CC1 [CBK282275],116.086
15,COc1cc(C)c(C)cc1S(=O)(=O)N1[C@@H](c2ccccc2F)C[C@@H]2NC(=O)CCC[C@H]21 [CBK286012],103.545
16,COCCNC(=O)c1cnn2c(C)c(Cc3ccccc3C)c(C)nc12 [CBK160253],107.096
17,O=C(Nc1ccccc1)c1ccc(F)cc1-n1cnnn1 [CBK287903],116.015
18,O=C1CCC(=O)N1CCOc1nccnc1OC1CCNCC1 [CBK075084T],118.77
19,Nc1cc(Cl)cc2[nH]c(=O)c3cc(Cl)ccc3c12 [CBK017144],100
20,CCOC(=O)Nc1ccc2c(c1)N(C(=O)CCN1CCOCC1)c1ccccc1CC2 [CBK261291C],100
21,COc1ccc(C(=O)Nc2nc(OCC(F)(F)F)cnc2/C=C\c2ccccc2)c(OC)c1 [CBK145367],122.691

# An excerpt of these results, with bars between the fields.
row | SMILES | % of control remaining [%]
4 | O=C(COc1ccc2ccccc2c1Br)Nc1ccc(S(=O)(=O)N2CCCC2)cc1 [CBK264135] | 100
5 | Cc1ncc(CO)c(/C=N/N=C/c2ccc(O)c(O)c2)c1O [CBK265075] | 96.8965
6 | COc1cc(Cn2c(-c3ccc(O)c(OC)c3)nc3ccccc32)ccc1O [CBK291138] | 137.117
7 | COc1ccc(CN2CCCn3c4c(c5cc(C)ccc53)CCCC42)cc1OCc1ccccc1 (stereo not drawn) [CBK262879] | 102.591
8 | Cn1ccnc1CN1CCN(Cc2nccn2C)CC1 [CBK266206C] | 111.349

# Remaining list, next part

row,SMILES,% of control remaining [%]
1,O=C(N/N=C/c1ccc(Br)s1)c1cccc([N+](=O)[O-])c1 [CBK261354],83.742
2,COc1ccc(/C=C(\NC(C)=O)C(=O)N2CCNCC2)cc1 [CBK077408],104.835
3,CCc1c(C)nc2ccc(Br)cc2c1SCCC(=O)O [CBK126914],85.5956
4,Cc1ccc(CCn2cc(C)nc2C)cn1 [CBK021231],149.104
5,Cc1cc(C)cc(S(=O)(=O)c2ccc3ccnc(N4CCCNCC4)c3c2)c1 [CBK036413C],119.6
6,O=C1/C(=C/c2ccc3c(c2)OCO3)SC(=S)N1CCCC(=O)N1CCCc2ccccc21 [CBK264676],100
7,O=C(Cn1cnc2sc(-c3ccccc3)cc2c1=O)c1ccc2c(c1)OCO2 [CBK297102],144.164
8,NC(=O)CS(=O)(=O)c1ccc(Cl)cc1 [CBK026373],148.896
9,Cc1cccc(C)c1OCC(=O)Nc1c[nH]c(=O)[nH]c1=O [CBK263358],117.017
10,CN1CCN(C(=O)c2ccc(NS(=O)(=O)c3ccc(Oc4ccccc4)cc3)cc2)CC1 [CBK034559],112.699
11,CC(=O)c1cn(CCC(=O)NC2CCCOC2)c2ccccc12 (stereo not drawn) [CBK282515],88.7849
12,Cc1ccsc1CN(Cc1nccn1C)CC(C)O (stereo not drawn) [CBK282976],120.722
13,C=CCOC(=O)C1=C(C)N=C2SCCC(=O)N2C1c1ccc(SC)cc1 (stereo not drawn) [CBK073405],94.8155
14,COc1cc(NC(=O)c2cc3c4c(sc3nc2N)CN(C)CC4)c(OC)c(OC)c1 [CBK269597],142.707
15,Cc1nc2ccccn2c1CN1CCC(N2CCCC2)CC1 [CBK281730],94.545
16,COc1nccnc1OC1CCN(CCc2ccc(F)cc2)CC1 [CBK084259],98.8057
17,Cc1cc(C)n2c(SCc3ccccc3)nnc2n1 [CBK025780],145.941
18,c1coc(CNc2cncc(-c3ccc4c(c3)OCO4)n2)c1 [CBK065930],140.776
19,COc1ccc(-c2cc(C(=O)NCc3ccc4c(c3)OCO4)cnc2-c2ccccc2)cn1 [CBK037571],143.823
20,NC(=O)CN1CCC(C(=O)c2ccc(F)cc2)CC1 [CBK149130],131.045
21,C=C(C)CN1CCN(C(=O)c2cc3cccc(OC)c3oc2=O)CC1 [CBK269211],135.471

row,SMILES,% of control remaining [%]
1,COC(=O)c1ccc(NS(=O)(=O)c2cccc3cccnc23)cc1 [CBK028694],117.121
2,Fc1cccc2sc(Nc3nnc(-c4ccco4)o3)nc12 [CBK287480],144.941
3,Nc1ncc(-c2ccoc2)nc1NCc1ccco1 [CBK063652],137.04
4,COCCNc1nc2c(c(N3CCC(C#N)CC3)n1)CCNCC2 [CBK307706],141.349
5,Fc1ccc(CNCCN2CCOCC2)cc1 [CBK278192C],110.727
6,CCN1CC2(CCN(CCCCC3NC(=O)NC3=O)CC2)c2ccccc21 (stereo not drawn) [CBK131489],55.2352
7,CCN(Cc1ccncc1)C(=O)NC(C)c1ccccc1 (stereo not drawn) [CBK155156],115.902
8,COC(=O)N1CC2(CCCCC2NCCC(F)(F)F)c2ccccc21 (stereo not drawn) [CBK083539T],101.871
9,CCn1ccnc1CN1CCOC(Cc2ccccc2Cl)C1 (stereo not drawn) [CBK306625],80.315
10,O=C(NCc1ccccn1)c1cncc(Br)c1 [CBK265226],118.244
11,CC(C)(CC(=O)O)CC(=O)Nc1cc(S(=O)(=O)N2CCCC2)ccc1Cl [CBK296702],153.674
12,Nc1cc2cccnc2nc1-c1ccncc1 [CBK067601],124.985
13,C=CCNc1nccnc1-c1ccc(C(C)=O)s1 [CBK037052],176.289
14,O=C(CSc1ncn(-c2ccccc2)n1)Nc1ccccc1Cl [CBK265593],124.4
15,CCOC(=O)C1CN(C(=O)N(CCN)Cc2ccc(Cl)cc2)CC1c1ccccc1 (stereo not drawn) [CBK001682C],100.522
16,C=CCc1cccc(Cl)c1OCCN1CCN(C)CC1 [CBK269734C],129.333
17,N#Cc1ccc(NCC(=O)Nc2ncccc2O)cc1 [CBK306413],120.339
18,O=C(NCc1ccc(F)cc1)N1CCCC(CO)C1 (stereo not drawn) [CBK156056],101.833
